Assay [1] addresses T1, SFXN2 (endogenous) (human (endogenous in HEK293)) (UniProt Q96NB2).
T1 sequence: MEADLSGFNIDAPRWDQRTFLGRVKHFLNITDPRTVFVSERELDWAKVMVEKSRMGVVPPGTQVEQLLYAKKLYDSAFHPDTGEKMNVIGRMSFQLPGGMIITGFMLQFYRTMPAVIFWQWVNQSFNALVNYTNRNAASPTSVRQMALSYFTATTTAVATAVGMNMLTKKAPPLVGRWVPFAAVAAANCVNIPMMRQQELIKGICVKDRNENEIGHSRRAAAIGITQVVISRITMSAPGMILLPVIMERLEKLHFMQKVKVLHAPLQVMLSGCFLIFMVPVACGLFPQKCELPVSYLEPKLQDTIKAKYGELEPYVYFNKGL
The experiment in a line: co-IP; endogenous proteins in HEK293 lysates; IP with anti-SFXN2 or anti-Parkin antibody (unspecific IgG as control) plus protein A/G-agarose, 4°C overnight, five washes with IP lysis buffer; immunoblot with anti-SFXN2 and anti-Parkin.

Sequences of proteins named here, by UniProt entry; tags and fusion partners are left off.
UniProt O60260: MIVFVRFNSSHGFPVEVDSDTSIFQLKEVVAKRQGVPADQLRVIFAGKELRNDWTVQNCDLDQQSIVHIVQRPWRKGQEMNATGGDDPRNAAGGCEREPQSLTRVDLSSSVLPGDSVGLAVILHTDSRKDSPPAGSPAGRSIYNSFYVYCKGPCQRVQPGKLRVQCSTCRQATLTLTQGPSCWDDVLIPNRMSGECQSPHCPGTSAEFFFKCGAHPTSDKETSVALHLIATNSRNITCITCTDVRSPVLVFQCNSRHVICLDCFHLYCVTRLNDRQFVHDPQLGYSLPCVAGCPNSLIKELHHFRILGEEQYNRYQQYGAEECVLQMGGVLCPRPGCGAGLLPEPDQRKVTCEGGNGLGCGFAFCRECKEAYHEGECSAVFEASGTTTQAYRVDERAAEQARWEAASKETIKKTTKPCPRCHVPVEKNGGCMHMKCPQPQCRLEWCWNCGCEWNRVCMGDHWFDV

Another assay deals with T2, SFXN2-Myc (UniProt Q96NB2).
T2 sequence: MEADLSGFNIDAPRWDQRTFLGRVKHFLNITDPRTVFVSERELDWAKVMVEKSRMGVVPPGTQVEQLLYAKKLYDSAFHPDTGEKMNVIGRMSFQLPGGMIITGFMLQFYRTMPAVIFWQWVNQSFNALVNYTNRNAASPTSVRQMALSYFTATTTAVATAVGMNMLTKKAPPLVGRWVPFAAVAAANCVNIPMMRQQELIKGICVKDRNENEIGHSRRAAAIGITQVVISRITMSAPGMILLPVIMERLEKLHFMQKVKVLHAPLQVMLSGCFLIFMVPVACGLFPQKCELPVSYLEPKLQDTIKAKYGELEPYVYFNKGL
The experiment in a line: co-IP; transiently transfected HEK293 cells; lysates immunoprecipitated with anti-Myc antibody, 4°C overnight, five washes with IP lysis buffer; immunoblot with anti-Myc and anti-HA.

Assay [2] has as its target Parkin (endogenous) (human (endogenous in HEK293)) (UniProt O60260). The experiment in a line: co-IP; endogenous proteins in HEK293 lysates; IP with anti-SFXN2 or anti-Parkin antibody (unspecific IgG as control) plus protein A/G-agarose, 4°C overnight, five washes with IP lysis buffer; immunoblot with anti-SFXN2 and anti-Parkin.
In another assay the target is Parkin-Myc (UniProt O60260). The experiment in a line: co-IP; transiently transfected HEK293 cells; lysates immunoprecipitated with anti-Myc antibody, 4°C overnight, five washes with IP lysis buffer; immunoblot with anti-Myc and anti-HA.

No constants are given. Whether binding was seen depends on the method and setting. Binding seen in cells or lysates may run through a third protein. Some results given as binding are weak or reduced against the parent protein; the word gives no strength. For some of these results: Tags and fused reporters may be left off the sequences shown.

Regarding “Parkin (endogenous) (from UniProt O60260 1-465)”, in assay [1], the binding result is recorded as “binds”.
As for Parkin-HA (from UniProt O60260 1-465), the binding result in the assay with SFXN2-Myc is “binds”.

B1: SFXN2 (endogenous) (protein, UniProt Q96NB2 1-322)
chain: MEADLSGFNIDAPRWDQRTFLGRVKHFLNITDPRTVFVSERELDWAKVMVEKSRMGVVPPGTQVEQLLYAKKLYDSAFHPDTGEKMNVIGRMSFQLPGGMIITGFMLQFYRTMPAVIFWQWVNQSFNALVNYTNRNAASPTSVRQMALSYFTATTTAVATAVGMNMLTKKAPPLVGRWVPFAAVAAANCVNIPMMRQQELIKGICVKDRNENEIGHSRRAAAIGITQVVISRITMSAPGMILLPVIMERLEKLHFMQKVKVLHAPLQVMLSGCFLIFMVPVACGLFPQKCELPVSYLEPKLQDTIKAKYGELEPYVYFNKGL
In the case of B1, the binding entry in assay [2] is recorded as “binds”.

B2: SFXN2-HA (protein, UniProt Q96NB2 1-322)
chain: MEADLSGFNIDAPRWDQRTFLGRVKHFLNITDPRTVFVSERELDWAKVMVEKSRMGVVPPGTQVEQLLYAKKLYDSAFHPDTGEKMNVIGRMSFQLPGGMIITGFMLQFYRTMPAVIFWQWVNQSFNALVNYTNRNAASPTSVRQMALSYFTATTTAVATAVGMNMLTKKAPPLVGRWVPFAAVAAANCVNIPMMRQQELIKGICVKDRNENEIGHSRRAAAIGITQVVISRITMSAPGMILLPVIMERLEKLHFMQKVKVLHAPLQVMLSGCFLIFMVPVACGLFPQKCELPVSYLEPKLQDTIKAKYGELEPYVYFNKGL
For the molecule B2, the binding result in the assay with Parkin-Myc is “binds”.

Source of the values: publication PMC12391048.
